The source holds more than one record for some entries. The other results are left out here. There may be further records. Results that share an entry seem to repeat one measurement on other runs, samples or individuals.
Target: PARP7 enzyme (Homo sapiens (Human), UniProt Q7Z3E1)
Assay: PARP7 enzymatic experiment (HTRF assay)
Format: biochemical
Conditions: read-out: PARP7 Enzyme (IC50 μM), 4PL fit

Protein sequences, listed by entry. Tags and fused reporters are not part of them. Residues count along the entry.
UniProt Q7Z3E1, 456-657 limits assumed: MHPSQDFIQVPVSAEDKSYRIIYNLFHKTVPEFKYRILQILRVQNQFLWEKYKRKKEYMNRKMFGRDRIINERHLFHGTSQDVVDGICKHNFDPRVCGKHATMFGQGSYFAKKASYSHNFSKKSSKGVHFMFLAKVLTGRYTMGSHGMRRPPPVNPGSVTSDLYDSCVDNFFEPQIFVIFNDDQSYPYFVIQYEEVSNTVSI

With CC1CC2CN(C(=O)CCOC[C@H](C)Nc3cn[nH]c(=O)c3C(F)(F)F)CCN2c2ncc(C(F)(F)F)cc2O1 (single isomer, unassigned) [Compound 62B] the IC50 was 8.19 nM and 41.5 nM.

— patent publication US20240336629A1, “Tricyclic Derivatives Useful As PARP7 Inhibitors” (JACOBIO PHARMACEUTICALS CO., LTD., priority 2021, published 2024)
